Results are given in words; binding and its absence hold for the method and conditions named. In cells and extracts the contact can be indirect.
Target: Cbl expressed in HEK293T cells (UniProt P22681)
Test: co-IP; HEK293T transfected with Flag-tagged Ube2e1, Ube2e2 or Ube2e3 with empty vector or EGFR/Cbl; NP40 lysis buffer; Cbl precipitated with anti-Cbl (C-15), blot with anti-Flag

By UniProt entry, the sequences of proteins in these tests, tags left out.
UniProt Q96LR5: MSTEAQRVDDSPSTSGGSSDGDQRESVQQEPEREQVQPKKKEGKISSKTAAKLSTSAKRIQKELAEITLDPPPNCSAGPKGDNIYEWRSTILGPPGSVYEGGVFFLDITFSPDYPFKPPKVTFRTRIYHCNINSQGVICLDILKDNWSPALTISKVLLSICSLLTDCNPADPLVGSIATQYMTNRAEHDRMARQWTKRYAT

Substance: Flag-tagged Ube2e2 (from UniProt Q96LR5 1-201) (enzyme)
- binding: no binding

Source: paper PMC6533038
